# The other results are listed elsewhere or left out.
# B1: LERP (Drosophila melanogaster), B7Z0Q8 (protein)
# chain: MRCSLQKDCAAPTQENFRQMRFPIVISLLLLLFCSGESVAADAANQLKFSTTECKLKEPIYGSTFDFSGLHSDLAHVVKSMNIGGDQFEFNICGNLSRTCNGESNVAACLKRQGKEYILGRQHELFYNNGNMFLKYKSGAKCDNGTADKPNYQLHVMFSCDYTLDAQPMHVTPYANEVCSFYISYRTPLACLSIPEGLQSNSCRVGDTKSNGTFDLMPLSDSNYHTSNRQGAFFVINVCKPVLYGENSMCPAGSSVCLFDSKATNPKERFINFGNVQTHPVVEKGQLLLRHESPTPCAKNSSANYTSVIYFSCDKFIRNAHPEFAGLGADSCTYQFNFATPLACNDLKPCTAFTSTNELLDLSSLSSKPARTLLKDGKNYTIAVCAHAGAPCQENGGACYEQNSTTISLGNSNSQLRFNQTGSLYLLYEDGAECSTATGMRRWSTKIEFVCANNATKDNGASTAGGSDSLKIIEDSNCQLLIQYQTPLACREPIRCKATTYVDHTNDGLGSSGDELIDLTPLISATDNYEARVELPASMEHLVPKTTKFFLNVCRPLVPKYQLGCAGGSAACMAKVTAAGAPEEERSMGFPLVSLTQRNRTFAELAYLKGDPCPTDNTSELSTHILFNCNMRAGRGQPVLRSVEDCAYRFEWETNVFCPPHECTFSADTCDLVHDELGRRFNFKSAPFTKDGKIEIDYNATKMSVNICGAHRKAMTDYSQALVNIFFTHESPNCGREGTMNVQIRLICSDQTESSSTISSDQQCNLLYVQRTPSICEFLSLGATQQNFESNGSTSSSTSSSSTSTTTSTTTQASPAGKPTKAATSTTTTTVGPDPAATPIGPTASVGTILGAILSVTFCVTCLGLLAFSPARRQRIRRLFRRSNSAVRYSRVQSNEEANLLLEPNGEFTESDDDMLL
# What was measured:
# Assay in all cases: glycan array binding signal (z-score within array); higher = stronger binding
# Settings in all cases: glycan notation: IUPAC condensed, linker removed
# [1] = target: Fuc(a1-3)[Gal3S(b1-4)]GlcNAc
# Method in brief: (§1)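 Glycan array data came from 3228 arrays in the Consortium for Functional Glycomics database, and only arrays with an available protein sequence were kept. Glycan names were put into IUPAC-condensed notation, and columns mapping to the same glycan were averaged. The binding signal is a within-array Z-score, averaged across arrays of one protein sequence run at different concentrations or buffers and across linkers. A negative Z-score can be read as non-binding.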
# [2] = target: Fuc(a1-3)[Gal3S(b1-4)]GlcNAc6S
# Method in brief: as §1
# [3] = target: Fuc(a1-3)[GalNAc(b1-4)]GlcNAc
# Method in brief: as §1
# Fuc(a1-4)GlcNAc = target: Fuc(a1-4)GlcNAc
# Method in brief: as §1
# Fuc(b1-3)GlcNAc = target: Fuc(b1-3)GlcNAc
# Method in brief: as §1
# Gal(a1-2)Gal = target: Gal(a1-2)Gal
# Method in brief: as §1
# Gal(a1-3)Gal = target: Gal(a1-3)Gal
# Method in brief: as §1
# Gal(a1-3)Gal(b1-3)GlcNAc = target: Gal(a1-3)Gal(b1-3)GlcNAc
# Method in brief: as §1
# [4] = target: Gal(a1-3)Gal(b1-3)GlcNAc(b1-2)Man(a1-3)[Gal(a1-3)Gal(b1-3)GlcNAc(b1-2)Man(a1-6)]Man(b1-4)GlcNAc(b1-4)GlcNAc
# Method in brief: as §1
# [5] = target: Gal(a1-3)Gal(b1-3)[Fuc(a1-4)]GlcNAc(b1-2)Man(a1-3)[Gal(a1-3)Gal(b1-3)[Fuc(a1-4)]GlcNAc(b1-2)Man(a1-6)]Man(b1-4)GlcNAc(b1-4)GlcNAc
# Method in brief: as §1
# Gal(a1-3)Gal(b1-4)Glc = target: Gal(a1-3)Gal(b1-4)Glc
# Method in brief: as §1
# Gal(a1-3)Gal(b1-4)GlcNAc = target: Gal(a1-3)Gal(b1-4)GlcNAc
# Method in brief: as §1
# [6] = target: Gal(a1-3)Gal(b1-4)GlcNAc(b1-3)GalNAc
# Method in brief: as §1
# [7] = target: Gal(a1-3)Gal(b1-4)[Fuc(a1-3)]GlcNAc
# Method in brief: as §1
# [8] = target: Gal(a1-3)Gal(b1-4)[Fuc(a1-3)]GlcNAc(b1-2)Man(a1-3)[Gal(a1-3)Gal(b1-4)[Fuc(a1-3)]GlcNAc(b1-2)Man(a1-6)]Man(b1-4)GlcNAc(b1-4)GlcNAc
# Method in brief: as §1
# Gal(a1-3)GalNAc = target: Gal(a1-3)GalNAc
# Method in brief: as §1
# [9] = target: Gal(a1-3)[Gal(a1-4)]Gal(b1-4)GlcNAc
# Method in brief: as §1
# [10] = target: Gal(a1-4)Gal(b1-3)GlcNAc(b1-2)Man(a1-3)[Gal(a1-4)Gal(b1-3)GlcNAc(b1-2)Man(a1-6)]Man(b1-4)GlcNAc(b1-4)GlcNAc
# Method in brief: as §1
# Gal(a1-4)Gal(b1-4)Glc = target: Gal(a1-4)Gal(b1-4)Glc
# Method in brief: as §1
# Gal(a1-4)Gal(b1-4)GlcNAc = target: Gal(a1-4)Gal(b1-4)GlcNAc
# Method in brief: as §1
# [11] = target: Gal(a1-4)Gal(b1-4)GlcNAc(b1-2)Man(a1-3)[Gal(a1-4)Gal(b1-4)GlcNAc(b1-2)Man(a1-6)]Man(b1-4)GlcNAc(b1-4)GlcNAc
# Method in brief: as §1
# [12] = target: Gal(a1-4)Gal(b1-4)GlcNAc(b1-3)Gal(b1-4)Glc
# Method in brief: as §1
# Gal(a1-4)GlcNAc = target: Gal(a1-4)GlcNAc
# Method in brief: as §1
# Gal(a1-6)Glc = target: Gal(a1-6)Glc
# Method in brief: as §1
# Gal(b1-2)Gal = target: Gal(b1-2)Gal
# Method in brief: as §1
# Gal(b1-3)Gal = target: Gal(b1-3)Gal
# Method in brief: as §1
# Gal(b1-3)Gal(b1-4)GlcNAc = target: Gal(b1-3)Gal(b1-4)GlcNAc
# Method in brief: as §1
# [13] = target: Gal(b1-3)Gal(b1-4)GlcNAc(b1-2)Man(a1-3)[Gal(b1-3)Gal(b1-4)GlcNAc(b1-2)Man(a1-6)]Man(b1-4)GlcNAc(b1-4)GlcNAc
# Method in brief: as §1
# Gal(b1-3)GalNAc = target: Gal(b1-3)GalNAc
# Method in brief: as §1
# [14] = target: Gal(b1-3)GalNAc(a1-3)[Fuc(a1-2)]Gal(b1-4)Glc
# Method in brief: as §1
binder,measurement,setting,value
B1,glycan array binding signal (z-score),[1],0.568
same,glycan array binding signal (z-score),[2],0.218
same,glycan array binding signal (z-score),[3],0.429
same,glycan array binding signal (z-score),Fuc(a1-4)GlcNAc,0.112
same,glycan array binding signal (z-score),Fuc(b1-3)GlcNAc,-0.045
same,glycan array binding signal (z-score),Gal(a1-2)Gal,0.982
same,glycan array binding signal (z-score),Gal(a1-3)Gal,-0.266
same,glycan array binding signal (z-score),Gal(a1-3)Gal(b1-3)GlcNAc,-0.704
same,glycan array binding signal (z-score),[4],1.82
same,glycan array binding signal (z-score),[5],0.657
same,glycan array binding signal (z-score),Gal(a1-3)Gal(b1-4)Glc,1.04
same,glycan array binding signal (z-score),Gal(a1-3)Gal(b1-4)GlcNAc,-0.471
same,glycan array binding signal (z-score),[6],0.511
same,glycan array binding signal (z-score),[7],-0.724
same,glycan array binding signal (z-score),[8],0.236
same,glycan array binding signal (z-score),Gal(a1-3)GalNAc,-0.56
same,glycan array binding signal (z-score),[9],-0.47
same,glycan array binding signal (z-score),[10],0.7
same,glycan array binding signal (z-score),Gal(a1-4)Gal(b1-4)Glc,0.234
same,glycan array binding signal (z-score),Gal(a1-4)Gal(b1-4)GlcNAc,-0.629
same,glycan array binding signal (z-score),[11],-0.39
same,glycan array binding signal (z-score),[12],2.8
same,glycan array binding signal (z-score),Gal(a1-4)GlcNAc,-0.583
same,glycan array binding signal (z-score),Gal(a1-6)Glc,-1.03
same,glycan array binding signal (z-score),Gal(b1-2)Gal,1.68
same,glycan array binding signal (z-score),Gal(b1-3)Gal,0.515
same,glycan array binding signal (z-score),Gal(b1-3)Gal(b1-4)GlcNAc,0.358
same,glycan array binding signal (z-score),[13],-0.06
same,glycan array binding signal (z-score),Gal(b1-3)GalNAc,0.158
same,glycan array binding signal (z-score),[14],-0.768

# 2 entries drawn at random from those above:
binder,measurement,setting,value
B1,glycan array binding signal (z-score),Gal(a1-3)GalNAc,-0.56
same,glycan array binding signal (z-score),Gal(a1-4)Gal(b1-4)GlcNAc,-0.629
